Data: article PMC2747018
No constants are given. Whether binding was seen depends on the method and setting. Some binding calls cover weakened binding; strength is not graded here.

The chains behind the UniProt entries cited, without tags or fusion partners. Where a name states a change or a piece, a line headed by the entry shows the natural chain unless it says otherwise. A line that says so, or that is headed by a name, gives the form on record, which may keep a tag or linker.
U1-70k isoform 2 (human (endogenous in HeLa)) (P08621, form named): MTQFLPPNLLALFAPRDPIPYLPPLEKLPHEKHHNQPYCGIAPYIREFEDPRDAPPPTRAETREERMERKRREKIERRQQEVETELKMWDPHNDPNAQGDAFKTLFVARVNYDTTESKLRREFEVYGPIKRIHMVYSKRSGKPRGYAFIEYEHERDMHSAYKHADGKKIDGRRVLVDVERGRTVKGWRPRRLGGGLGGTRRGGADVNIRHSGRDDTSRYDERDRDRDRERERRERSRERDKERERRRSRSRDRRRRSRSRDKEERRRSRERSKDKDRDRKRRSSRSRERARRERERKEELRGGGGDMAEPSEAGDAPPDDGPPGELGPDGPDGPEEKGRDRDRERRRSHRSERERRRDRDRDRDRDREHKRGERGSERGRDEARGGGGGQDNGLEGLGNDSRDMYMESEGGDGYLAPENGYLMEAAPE
UniProt P62316: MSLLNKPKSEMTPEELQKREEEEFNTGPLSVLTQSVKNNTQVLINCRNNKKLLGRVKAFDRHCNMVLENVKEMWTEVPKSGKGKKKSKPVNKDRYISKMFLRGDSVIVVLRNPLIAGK
UniProt P09234: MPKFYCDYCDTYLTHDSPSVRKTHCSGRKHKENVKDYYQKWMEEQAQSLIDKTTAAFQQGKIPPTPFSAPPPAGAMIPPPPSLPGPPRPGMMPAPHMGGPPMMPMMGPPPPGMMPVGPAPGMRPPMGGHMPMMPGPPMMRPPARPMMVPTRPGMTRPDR

Tests used:
[1] = molecular target: U1-70k isoform 2 (human (endogenous in HeLa)) (UniProt P08621); test: native MS; sub-complexes of the U1 snRNP purified from HeLa cells, formed by gas-phase activation or in solution (15% n-butanol and/or 128-150 mM ammonium acetate); U1 snRNA is present in all dissociation products
[2] = molecular target: U1-70k isoform 2 (human (endogenous in HeLa)) (UniProt P08621); test: native MS; ratio of the U1-70k isoforms in stripped complexes after gas-phase loss of Sm-B/B' or U1-C from the HeLa U1 snRNP at lower activation energy (collision cell 100 V), 200 mM ammonium acetate; at high activation (160 V) the ratio stays as in the intact complex

binding [1] | binding [2] | Substance
binds | – | Sm-D2 (from UniProt P62316 1-118)
– | binds | U1-C protein of the native human U1 snRNP (from UniProt P09234 1-159)
